The term IC50 denotes the point on the concentration scale where inhibition reaches its midpoint.

Chains of the proteins cited; added tags and fusions are not shown.
UniProt O35433, whole entry: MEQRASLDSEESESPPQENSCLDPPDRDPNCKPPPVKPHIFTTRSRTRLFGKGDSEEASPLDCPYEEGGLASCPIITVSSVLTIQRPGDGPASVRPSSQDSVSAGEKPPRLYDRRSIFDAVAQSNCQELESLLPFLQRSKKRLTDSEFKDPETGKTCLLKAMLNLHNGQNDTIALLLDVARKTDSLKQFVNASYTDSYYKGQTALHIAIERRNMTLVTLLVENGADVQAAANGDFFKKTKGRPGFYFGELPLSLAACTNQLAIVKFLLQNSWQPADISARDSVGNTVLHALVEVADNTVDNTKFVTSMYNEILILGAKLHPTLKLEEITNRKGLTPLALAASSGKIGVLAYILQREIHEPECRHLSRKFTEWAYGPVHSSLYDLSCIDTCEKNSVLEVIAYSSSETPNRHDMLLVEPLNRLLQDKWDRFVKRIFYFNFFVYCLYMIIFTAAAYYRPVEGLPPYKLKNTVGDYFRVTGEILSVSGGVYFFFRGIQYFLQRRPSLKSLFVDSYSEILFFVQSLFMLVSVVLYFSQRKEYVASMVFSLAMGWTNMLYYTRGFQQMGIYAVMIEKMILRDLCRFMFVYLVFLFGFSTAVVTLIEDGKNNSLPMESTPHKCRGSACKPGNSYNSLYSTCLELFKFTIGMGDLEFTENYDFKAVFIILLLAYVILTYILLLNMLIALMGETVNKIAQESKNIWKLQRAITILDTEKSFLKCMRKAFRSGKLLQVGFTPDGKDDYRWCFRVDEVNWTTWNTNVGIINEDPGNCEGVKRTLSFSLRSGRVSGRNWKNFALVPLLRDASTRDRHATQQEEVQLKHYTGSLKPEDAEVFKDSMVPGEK

Data on one molecule can be found in US7858621B2 (Amorepacific Corporation, priority 2006, dated 2010).

Each structure is given as a SMILES string. The structures given here were assigned with low confidence; some may be wrong.

The experiment deals with vanilloid receptor (Rattus norvegicus, UniProt O35433). Briefly: 45Ca influx test in cultured neonatal rat DRG neurons, inhibition of capsaicin response. The experiment is classed as cell-based. Conditions: read-out: Antagonist Calcium Uptake Test (IC50), capsaicin 0.5 μM.

Regarding `CN(C)c1nc(C(F)(F)F)ccc1/C=C/C(=O)NCc1cc(F)c(NS(C)(=O)=O)c(C#N)c1`, the half-maximal inhibitory concentration (IC50) was determined as 1600 nM.
